Some of the results follow. The main result of the screen is listed elsewhere. These columns were measured beside it and carry no call. Compounds called inactive in the main read-out are mostly missing here. Words in brackets tell the shape of the fitted curve; partial curves, single points and poor fits give uncertain potencies.
Assay: qHTS Assay for Lipid Storage Modulators in Drosophila S3 Cells;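 as to cell number change: cells counted by Cell Tracker Red CMTPX staining in the red channel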
Conditions: BODIPY lipid droplet fluorescence, 18-24 h; for cell number change: measured here: cell count max response, cells fed with added oleic acid
Method in brief: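 Laser-scanning cytometry quantifies lipid droplet accumulation (500–530 nm total intensity; droplet/cell object ratio) in oleic acid-fed (400 uM added) Drosophila S3 cells treated with a concentration series. 20 uM Triacsin C defined 100% inhibition.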

[1] = measured here: cell number channel AC50, cells fed with added oleic acid
[2] = measured here: lipid fluorescence (Fed channel) AC50, cells fed with added oleic acid

Row | Structure (SMILES) | cell number change [%] | AC50 [1] | AC50 [2]
1 | Cc1c(CCC(=O)N[C@@H](CC(C)C)C(=O)O)c(=O)oc2cc3oc4c(c3cc12)CCCC4 | 33.1 | 5.17 µM [rising, partial curve] | 0.58 µM [rising, partial curve, poor fit]
2 | Cc1cc(C(=O)CSc2ncccn2)c(C)n1-c1cccc(F)c1 | -72.5 | 18.4 µM [falling, partial curve, poor fit] | 16.4 µM [rising, partial curve]
3 | COc1ccc(NC(=O)N2CCCC(C(=O)NCCc3ccccc3)C2)cc1 (stereo unspecified) | 8.12 | – | 29.1 µM [rising, single point]
4 | O=C(CSc1nnc(-c2cccs2)o1)NCc1ccco1 | -70.9 | 16.4 µM [falling, single point] | –
5 | O=C1CC(C(=O)NC2CCCCC2)C(c2ccccc2)O1 (stereo unspecified) | – | – | 0.116 µM [falling, full curve, poor fit]
6 | COc1ccc(CCn2c(-c3ccc(OC)cc3)nc3c(c(=O)c4ccccc4n3C)c2=O)cc1 | 24 | – | –
7 | C#CCOCCOCCOCCNc1nc(N2CCN(C(=O)[C@H]([C@@H](C)O)n3cc(CCCCN)nn3)CC2)nc(N2CCN(C(=O)[C@H](Cc3ccc(O)cc3)n3cc(CCO)nn3)CC2)n1 | 0.231 | 5.17 µM [falling, partial curve] | 6.51 µM [falling, partial curve]
8 | Cc1ccccc1S(=O)Cc1ccc(C(=O)NC2CC2)o1 (stereo unspecified) | -1.77 | – | 0.58 µM [rising, single point]
9 | CCOc1ccc(CN2CCNC(=O)C2CC(=O)NCc2cc(C)n(C)n2)cc1 (stereo unspecified) | – | – | 29.1 µM [rising, single point]
10 | COc1ccccc1-n1c(CNC(=O)c2ccc(S(=O)(=O)N3CCOCC3)cc2)n[nH]c1=S | 7.73 | 2.91 µM [rising, single point] | 29.1 µM [falling, single point]
11 | Oc1ccccc1Oc1c(F)c(F)nc(N2CCCC2)c1F | – | 0.13 µM [rising, full curve, poor fit] | –
12 | CCOc1ccc(/C=N/n2cc(-c3ccccc3)[nH]c2=S)cc1 | – | 6.51 µM [falling, single point] | 5.17 µM [falling, single point]
13 | CN(C)C(=O)NCc1ccc(S(N)(=O)=O)cc1 | -43.6 | 3.66 µM [falling, full curve] | 3.66 µM [falling, full curve]
14 | COc1ccc(OC)c(-c2csc(NC(=O)Cc3ccccc3F)n2)c1 | 43.8 | 7.31 µM [rising, partial curve] | 23.1 µM [falling, single point]
15 | COc1ccc2cc(CN(C(=O)Nc3ccccc3)C3CCCC3)c(=O)[nH]c2c1 | 11.9 | – | 2.06 µM [rising, full curve]
16 | CCOc1ccc(CN2CCN(CC(O)Cn3c4ccccc4c4ccccc43)CC2)cc1 (stereo unspecified) | -69.5 | 25.9 µM [falling, partial curve, poor fit] | 16.4 µM [falling, partial curve]
17 | C/C(=N\N1CCN(Cc2ccc(Cl)cc2)CC1)c1ccc(F)cc1 | -29.1 | – | 16.4 µM [falling, single point]
18 | CC(NC(=O)C(=O)NCCC1=CCCCC1)c1ccccc1 (stereo unspecified) | -4.76 | – | 1.84 µM [rising, partial curve]
19 | CC1=C(C(=O)OCc2ccccc2)C(c2ccc(Cl)cc2)NC(=O)N1CCCC(=O)O (stereo unspecified) | 14.2 | – | –

Row | Structure (SMILES) | cell number change [%] | AC50 [1] | AC50 [2]
20 | Cc1cc(N(C)C)ccc1N=Nc1ccc2ncccc2c1 | -53.5 | 13 µM [falling, partial curve] | 2.91 µM [falling, full curve]
21 | COc1ccc(C)cc1NC(=O)CN1C(=O)COc2ccc(S(=O)(=O)N3CCCCCC3)cc21 | -21.8 | – | 20.6 µM [rising, partial curve]
22 | Cc1ccc(C(=O)Nc2ccc3c(c2)OCO3)cc1S(=O)(=O)N1CCCCC1 | -23.5 | – | 0.164 µM [rising, full curve, poor fit]
23 | C#CC(C)(CC)NC(=O)Cn1nnc(-c2ccc(S(C)(=O)=O)cc2)n1 (stereo unspecified) | -33.7 | 6.51 µM [falling, full curve] | 9.2 µM [falling, partial curve, poor fit]
24 | CCC(=O)c1ccc(OC(=O)/C=C/c2cc(OC)c(OC)c(OC)c2)cc1 | 13.2 | – | –
25 | CN(CC(=O)Nc1cccc(F)c1)C(=O)c1ccc2c(=O)n3c(nc2c1)CCC3 | -2.59 | – | 29.1 µM [falling, single point]
26 | O=C(CCn1cnc(-c2ccccc2)c1-c1ccccc1)N/N=C/c1ccccc1O | -27.8 | – | 29.1 µM [falling, single point]
27 | Cc1ccc2occ(C3N[C@H](C(=O)O)CS3)c(=O)c2c1 (stereo partly specified) | 29.8 | 4.11 µM [rising, full curve, poor fit] | 18.4 µM [rising, single point]
28 | O=C(NCC1CCCO1)c1ccc(COc2ccccc2)cc1 (stereo unspecified) | -10.8 | – | –
29 | CCC(NC(=O)c1ccccc1NC(=O)c1ccccc1)C(=O)NNC(=O)c1cccnc1 (stereo unspecified) | 38.8 | 16.4 µM [rising, partial curve, poor fit] | 4.11 µM [rising, partial curve, poor fit]
30 | CCC(CC)C1C(C#N)=C(N)Oc2cc(C)oc(=O)c21 (stereo unspecified) | – | 5.8 µM [rising, single point] | –
31 | O=C(c1ccc(F)cc1)N1CCN2C(=O)c3ccccc3C12c1ccccc1 (stereo unspecified) | 14.9 | – | 29.1 µM [falling, single point]
32 | Cc1nnc(NC(=O)CSc2nnc(CC(=O)Nc3ccccc3Cl)n2C)s1 | 33.3 | 0.00461 µM [rising, full curve, poor fit] | –
33 | COc1ccc(Cl)cc1NC(=O)Nc1ccc(C(=O)N2CCCC2)cc1 | -12.9 | – | –
34 | CCc1ccc(NC(=O)COc2cccc(-n3cnnn3)c2)cc1 | -5.26 | – | –
35 | CSc1ccc(CN(C)Cc2cc(=O)oc3c(C)c(C)ccc23)cc1 | -33.7 | – | –
36 | CC(Oc1ccc(S(=O)(=O)N2CCCC2)cc1[N+](=O)[O-])C(=O)NC1(C#N)CCCCC1 (stereo unspecified) | 20.1 | – | 2.59 µM [rising, full curve, poor fit]
37 | O=C(NC1CCCC1)c1cc(Cl)ccc1[N+](=O)[O-] | 4.98 | – | 5.17 µM [rising, full curve, poor fit]
38 | CCCCn1c(N)c(N(CC(C)C)C(=O)c2cc(-c3ccco3)nc3ccccc23)c(=O)[nH]c1=O | – | 2.91 µM [rising, single point] | 3.66 µM [rising, partial curve]

Row | Structure (SMILES) | cell number change [%] | AC50 [1] | AC50 [2]
39 | COC(=O)CCN1CCN(S(=O)(=O)c2ccc3c(c2)OCCO3)CC1 | 11.4 | – | –
40 | CCc1ccc(S(=O)(=O)c2cn(C)c3cc(OC)c(OC)cc3c2=O)cc1 | 18.9 | 4.11 µM [rising, single point] | –
41 | COc1cccc(/C=C/C(=O)NCc2cn3cc(Cl)ccc3n2)c1OC | – | 3.66 µM [rising, single point] | 4.61 µM [rising, partial curve, poor fit]
42 | CN(C/C=C/c1ccccc1)C1CCCCC1 | -7.18 | – | 29.1 µM [rising, single point]
43 | CCCN(CCC)S(=O)(=O)c1ccc(C(=O)O)cc1 | 16.4 | – | 29.1 µM [rising, single point]
44 | COc1cc(OC)cc(-c2c(-c3cccs3)c3cc(Br)ccc3n2C)c1 | -8.02 | – | –
45 | CCOc1ccccc1N1CCN(Cc2cccc(OC)c2OC)CC1 | -9.81 | – | 16.4 µM [falling, partial curve]
46 | O=C(Nc1ccccc1N1CCOCC1)c1csc2c1CCCC2 | 19.6 | – | 1.84 µM [rising, full curve, poor fit]
47 | CC/C(=N\NC(=O)CNC(=O)/C=C/c1ccc(OC)cc1)c1ccccc1 | – | – | 29.1 µM [rising, single point]
48 | CC(C)n1cnnc1SCC(=O)NC(=O)c1ccccc1 | -39.7 | 29.1 µM [falling, single point] | 20.6 µM [falling, single point]
49 | NC(=O)C1CCN(C(=O)c2ccc3c(=O)n(Cc4ccco4)c(SCC(=O)c4ccc(F)cc4)nc3c2)CC1 | -55.4 | 11.6 µM [falling, partial curve, poor fit] | 29.1 µM [falling, single point]
50 | COc1ccccc1C(=O)OCC(=O)NC(=O)NC1CCCC1 | -6.91 | – | 0.164 µM [falling, full curve]
51 | C=CCNC(=O)C1CC(=O)N(c2ccc(OCC(=O)NCc3ccccc3)cc2)C1 (stereo unspecified) | -10.2 | – | –
52 | CCC(=O)c1ccccc1OCCN1C(=O)NC(C)(C)C1=O | -0.647 | – | 11.6 µM [rising, single point]
53 | COc1cc(C2C(C(=O)c3ccc(C)o3)=C(O)C(=O)N2CCCn2ccnc2)cc(OC)c1OC (stereo unspecified) | 1.72 | – | 3.26 µM [rising, partial curve]
54 | CCN(CCNCC(O)COc1ccccc1C(C)C)c1cccc(C)c1 (stereo unspecified) | -11.1 | – | 0.116 µM [falling, full curve, poor fit]
55 | Cc1cccc(NC(=O)Cn2nnc3sc4c(c3c2=O)CC(C)(C)OC4)c1 | 11 | 2.31 µM [rising, single point] | –
56 | CC(C(=O)Nc1ccccc1Oc1ccccc1)c1ccccc1 (stereo unspecified) | 34.4 | 11.6 µM [rising, partial curve] | 1.84 µM [rising, single point]

Compounds 18 through 22, quoted:
Row | Structure (SMILES) | cell number change [%] | AC50 [1] | AC50 [2]
18 | CC(NC(=O)C(=O)NCCC1=CCCCC1)c1ccccc1 (stereo unspecified) | -4.76 | – | 1.84 µM [rising, partial curve]
19 | CC1=C(C(=O)OCc2ccccc2)C(c2ccc(Cl)cc2)NC(=O)N1CCCC(=O)O (stereo unspecified) | 14.2 | – | –
20 | Cc1cc(N(C)C)ccc1N=Nc1ccc2ncccc2c1 | -53.5 | 13 µM [falling, partial curve] | 2.91 µM [falling, full curve]
21 | COc1ccc(C)cc1NC(=O)CN1C(=O)COc2ccc(S(=O)(=O)N3CCCCCC3)cc21 | -21.8 | – | 20.6 µM [rising, partial curve]
22 | Cc1ccc(C(=O)Nc2ccc3c(c2)OCO3)cc1S(=O)(=O)N1CCCCC1 | -23.5 | – | 0.164 µM [rising, full curve, poor fit]

From PubChem BioAssay AID2685 (National Center for Advancing Translational Sciences (NCATS), 2010)
